The campaign covered roughly 320,000 compounds. About 22,000 (6.9%) were called active. This list was built around the results that the source calls inconclusive (neither active nor inactive); the mix of calls is not that of the screen. The call rests on the fitted dose curve; in most records, active means well fitted inhibition curve with a large enough effect; inconclusive means small, poorly fitted or top-dose-only effect, or another doubt; inactive means no such curve, though single readings can be large or run the other way. Potencies of inconclusive entries are doubtful fits and often do not repeat.
test: Primary qHTS for delayed death inhibitors of the malarial parasite plastid, 96 hour incubation; conditions: P. falciparum luciferase reporter growth; series mostly up to 28.7 µM; activity change, negative = inhibition: at the top concentration
Procedure, shortened: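 Delayed-death screen, second-generation endpoint: infected erythrocytes, 2% hematocrit, 0.05% parasitemia final; 96 hours at 37 C, 5% CO2; luciferase detection reagent; luminescence decrease equals reduced growth.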
On the % scale 0 is the no-effect control and ±100 the full control effect; potency means the concentration at half of the fitted maximal effect.

Compound	Potency	activity change, negative = inhibition
COC(=O)c1ccccc1NC=C1C(=O)OC2(CCCCC2)OC1=O	inconclusive: 18.5 µM [inhibitor, single point]	–
Nc1nc2ccccc2n1C(=O)c1ccco1	inconclusive: 10.4 µM [inhibitor, single point]	–
CN1C2CCC1CC(=NO)C2	inconclusive: 0.828 µM [inhibitor, full curve, poor fit]	–
N/C(=N/O)c1cccn1Cc1ccccc1[N+](=O)[O-]	inconclusive: 18.5 µM [inhibitor, single point]	–
C/C=C(\C)C(=O)NNC(=O)c1sc(-c2ccccc2)nc1C	–	inactive: 0.0455%
COCCNC(=S)Nc1ccc(N2CCOCC2)c(S(=O)(=O)Nc2ccccc2OC)c1	inconclusive: 8.28 µM [inhibitor, partial curve, poor fit]	–
COc1cccc2c(=O)c3ccoc3n(C)c12	–	inactive: 97.7%
O=C(COC(=O)CN1C(=O)C2CCCCC2C1=O)Nc1cc(S(=O)(=O)N2CCOCC2)ccc1Cl (configuration not stated)	–	inactive: -7.14%
O=C(N/N=C/c1ccc([N+](=O)[O-])o1)c1ccc(O)cc1	active: 1.04 µM	–
Cc1ccc(NC(=O)CN(C)S(=O)(=O)c2cnc[nH]2)c(C)c1	inconclusive: 18.5 µM [inhibitor, single point]	–
CCc1noc(C)c1C(=O)Nc1ccc(C(F)(F)F)cc1	–	inactive: 37.2%
CC(=O)Nc1ccc(N=Cc2nc(-c3ccc(C)cc3)oc2O)cc1	inconclusive: 13.1 µM [inhibitor, partial curve, poor fit]	–
O=C(c1nc2ccccn2c1CNCCCn1nnc2ccccc21)N1CCOCC1	inconclusive: 18.5 µM [inhibitor, single point]	–
CC(CCc1ccccc1)NC(=O)CCNC(=O)Cn1ccc2ccccc2c1=O (configuration not stated)	–	inactive: -3.81%
Cc1ccccc1OCCN=Cc1c(O)n(C)c(=O)n(C)c1=O	inconclusive: 0.0041 µM [inhibitor, full curve, poor fit]	–
O=[N+]([O-])/C=C\c1ccc(N2CCCC2)c(F)c1	inconclusive: 18.5 µM [inhibitor, single point]	–
CC(=O)Nc1ccc(NC(=O)C(C)OC(=O)c2c(NC(C)=O)sc(C)c2C)cc1 (configuration not stated)	inconclusive: 1.85 µM [inhibitor, partial curve, poor fit]	–
COc1ccc(-c2nc3ccc(C(=O)NCCCN4CCOCC4)cc3nc2-c2ccc(OC)cc2)cc1	inconclusive: 10.4 µM [inhibitor, partial curve, poor fit]	–
COc1ccccc1/C=C/CN1CCN(Cc2ccc(F)cc2)C(CCO)C1 (configuration not stated)	inconclusive: 10.4 µM [inhibitor, single point]	–
COc1ccc(N=C2SC(CC(=O)Nc3ccccc3F)C(=O)N2Cc2ccco2)cc1 (configuration not stated)	inconclusive: 18.5 µM [inhibitor, single point]	–
C/C(=N/Nc1ccc([N+](=O)[O-])cc1)c1c[nH]c2ccccc12	inconclusive: 18.5 µM [inhibitor, single point]	–
CCCCOc1ccc(-c2nnn(CC(=O)NCCc3c[nH]c4ccccc34)n2)cc1	–	inactive: 36.6%
O=C(c1ccccc1)c1c[nH]c(C(=O)NNc2cccc(Cl)n2)c1	inconclusive: 32.9 µM [inhibitor, partial curve, poor fit]	–

Part of the list above, as a markdown table.

| Compound | Potency | activity change, negative = inhibition |
| --- | --- | --- |
| COCCNC(=S)Nc1ccc(N2CCOCC2)c(S(=O)(=O)Nc2ccccc2OC)c1 | inconclusive: 8.28 µM [inhibitor, partial curve, poor fit] | – |
| COc1cccc2c(=O)c3ccoc3n(C)c12 | – | inactive: 97.7% |
| O=C(COC(=O)CN1C(=O)C2CCCCC2C1=O)Nc1cc(S(=O)(=O)N2CCOCC2)ccc1Cl (configuration not stated) | – | inactive: -7.14% |
| O=C(N/N=C/c1ccc([N+](=O)[O-])o1)c1ccc(O)cc1 | active: 1.04 µM | – |
| Cc1ccc(NC(=O)CN(C)S(=O)(=O)c2cnc[nH]2)c(C)c1 | inconclusive: 18.5 µM [inhibitor, single point] | – |
| CCc1noc(C)c1C(=O)Nc1ccc(C(F)(F)F)cc1 | – | inactive: 37.2% |
| CC(=O)Nc1ccc(N=Cc2nc(-c3ccc(C)cc3)oc2O)cc1 | inconclusive: 13.1 µM [inhibitor, partial curve, poor fit] | – |
| O=C(c1nc2ccccn2c1CNCCCn1nnc2ccccc21)N1CCOCC1 | inconclusive: 18.5 µM [inhibitor, single point] | – |
| CC(CCc1ccccc1)NC(=O)CCNC(=O)Cn1ccc2ccccc2c1=O (configuration not stated) | – | inactive: -3.81% |
| Cc1ccccc1OCCN=Cc1c(O)n(C)c(=O)n(C)c1=O | inconclusive: 0.0041 µM [inhibitor, full curve, poor fit] | – |
| O=[N+]([O-])/C=C\c1ccc(N2CCCC2)c(F)c1 | inconclusive: 18.5 µM [inhibitor, single point] | – |
| CC(=O)Nc1ccc(NC(=O)C(C)OC(=O)c2c(NC(C)=O)sc(C)c2C)cc1 (configuration not stated) | inconclusive: 1.85 µM [inhibitor, partial curve, poor fit] | – |
| COc1ccc(-c2nc3ccc(C(=O)NCCCN4CCOCC4)cc3nc2-c2ccc(OC)cc2)cc1 | inconclusive: 10.4 µM [inhibitor, partial curve, poor fit] | – |
| COc1ccccc1/C=C/CN1CCN(Cc2ccc(F)cc2)C(CCO)C1 (configuration not stated) | inconclusive: 10.4 µM [inhibitor, single point] | – |
| COc1ccc(N=C2SC(CC(=O)Nc3ccccc3F)C(=O)N2Cc2ccco2)cc1 (configuration not stated) | inconclusive: 18.5 µM [inhibitor, single point] | – |
| C/C(=N/Nc1ccc([N+](=O)[O-])cc1)c1c[nH]c2ccccc12 | inconclusive: 18.5 µM [inhibitor, single point] | – |

Next part.

Compound	Potency	activity change, negative = inhibition
O=C(CN1C(=O)c2ccccc2C1=O)Nc1cccc(Cl)c1	inconclusive: 4.65 µM [inhibitor, partial curve, poor fit]	–
COC(=O)CCC(=O)c1oc2ccc(Cl)cc2c1NC(=O)CCCN1C(=O)c2ccccc2C1=O	inconclusive: 18.5 µM [inhibitor, single point]	–
COc1ccccc1Oc1ccc(N/C=C2/CCCC2=O)cc1	inconclusive: 9.28 µM [inhibitor, single point]	–
O=C(NCc1cccc(F)c1)C1CCN(S(=O)(=O)Cc2ccccc2)CC1	inconclusive: 4.15 µM [inhibitor, partial curve, poor fit]	–
CCc1ccc(C2=NN(CCC(=O)NC(C)CCc3ccccc3)C(=O)CC2)cc1 (configuration not stated)	–	inactive: 0.534%
Cc1ccc(NC(=O)CN2C(=O)S/C(=C\c3cccn3C)C2=O)cc1	inconclusive: 0.0329 µM [inhibitor, full curve, poor fit]	–
O=C(O)/C=C/c1cn(-c2ccccc2)nc1-c1ccc2c(c1)OCCO2	inconclusive: 7.38 µM [inhibitor, partial curve]	–
C=CCN(c1ccccc1)S(=O)(=O)c1ccc(Cl)c(C(=O)OCC(=O)N(C)C2CCS(=O)(=O)C2)c1 (configuration not stated)	inconclusive: 0.657 µM [inhibitor, full curve, poor fit]	–
Cc1ccc(NC(=O)c2ccc(OC(=O)COc3ccc(Cl)cc3C)cc2)cc1	–	inactive: 377%
O=C(Nc1cccnc1N1CCOCC1)c1ccco1	inconclusive: 18.5 µM [inhibitor, single point]	–
CCOC(=O)[C@H]1[C@H]2COc3ccc(OC)cc3[C@@H]2N2C(=O)c3cc(OC)ccc3NC(=O)[C@@]12C	inconclusive: 18.5 µM [inhibitor, single point]	–
C(=C\c1nnc2c3ccccc3ncn12)/c1ccccc1	–	inactive: 166%
Cc1nn(-c2ccc([N+](=O)[O-])cc2)c(N)c1-c1ccccc1	inconclusive: 10.4 µM [inhibitor, single point]	–
COc1ccc2c3c([nH]c2c1)C1(NCC3)C(=O)Nc2ccccc21 (configuration not stated)	inconclusive: 18.5 µM [inhibitor, partial curve, poor fit]	–
CC(=O)NC(CC(=O)OC(C)C(=O)Nc1ncc(Cl)cc1Cl)c1ccccc1 (configuration not stated)	–	inactive: 21.7%
O=C(Nc1ccccc1)N(C1=NCCCCS1)c1cccc2ccccc12	–	inactive: 45.2%
O=C(Nc1ccc2oc(-c3ccccc3)nc2c1)c1cccnc1	–	inactive: -14.2%
COc1cc2c(cc1OC)/C(=C/C(=O)N1CCOCC1)NC(C)(C)C2	inconclusive: 1.85 µM [inhibitor, partial curve, poor fit]	–
Cc1ccc(NS(=O)(=O)c2c(C)[nH]c(C)c2C(=O)N2CCCCC2)cc1C	inconclusive: 18.5 µM [inhibitor, single point]	–
Cc1nc2nc(SCC(=O)N3CCOCC3)nn2c(C)c1Cc1ccccc1	inconclusive: 11.7 µM [inhibitor, partial curve, poor fit]	–
Cc1ccc(S(=O)(=O)C2(C(=O)NCc3ccc4c(c3)OCO4)CC2)cc1	inconclusive: 10.4 µM [inhibitor, single point]	–
COc1ccc(Cl)cc1NC(=O)CN(C)C(=O)c1ccc(COc2ccccc2)cc1	inconclusive: 18.5 µM [inhibitor, partial curve, poor fit]	–
COc1ccc(Nc2cnn(-c3nc4ccccc4s3)c(=O)c2Cl)cc1	inconclusive: 18.5 µM [inhibitor, single point]	–

Compound	Potency	activity change, negative = inhibition
COc1ccccc1CNC(=O)CNC(=O)N1CC(=O)Nc2ccccc21	inconclusive: 18.5 µM [inhibitor, single point]	–
Cc1ccnc(NS(=O)(=O)c2ccc(N=Cc3c(O)n(C)c(=O)n(C)c3=O)cc2)n1	inconclusive: 11.7 µM [inhibitor, single point]	–
Cc1ccccc1Nc1nc(-c2sc(NC(=O)c3ccc([N+](=O)[O-])cc3)nc2C)cs1	active: 13.1 µM	–
CN(Cc1ncc[nH]1)C(=O)CC1C(=O)NCCN1Cc1c(F)cccc1Cl (configuration not stated)	–	inactive: 23.8%
O=C(NCC1CCCO1)c1ccc(Br)c(S(=O)(=O)N2CCOCC2)c1 (configuration not stated)	active: 1.31 µM	–
CN(Cc1ccccc1)C(=O)COC(=O)c1cc(Cl)nc(Cl)c1	–	inactive: 3.08%
CC1(c2ccc(OC(F)F)cc2)NC(=O)N(CC(=O)N2c3ccccc3NC(=O)C2(C)C)C1=O (configuration not stated)	–	inactive: -45.8%
COc1ccc(NC(=O)CN(C)CC(=O)NCCc2ccc(F)cc2)cc1	–	inactive: 1.21%
O=C(CNC(=O)Cc1ccccc1)N=Nc1c(O)n(Cc2ccc3c(c2)OCO3)c2ccccc12	inconclusive: 11.7 µM [inhibitor, single point]	–
CCC(C)(C)n1nnnc1C(c1cc2cccc(C)c2[nH]c1=O)N1CCN(C(=O)c2ccco2)CC1 (configuration not stated)	–	inactive: 58.4%
O=C(COc1ccc(F)cc1)NN1C(=O)CSC1=S	–	inactive: 65.5%
O=C(Cc1ccc([N+](=O)[O-])cc1)Nc1ccon1	inconclusive: 13.1 µM [inhibitor, single point]	–
CN(c1cccc(NC(=O)CN(c2ccc(Cl)c(Cl)c2)S(=O)(=O)c2ccccc2)c1)S(C)(=O)=O	inconclusive: 4.65 µM [inhibitor, partial curve, poor fit]	–
CN1C(=O)NC(c2ccc(O)cc2)C(C(=O)c2cccs2)C1(O)C(F)(F)F (configuration not stated)	inconclusive: 13.1 µM [inhibitor, single point]	–
CC1(C)CC(=O)/C(=C(\O)CCCN2C(=O)c3ccccc3C2=O)C(=NCCO)C1	inconclusive: 5.22 µM [inhibitor, partial curve, poor fit]	–
CCOc1ccc(S(=O)(=O)N2CCCC(C(=O)N3CCC(C(N)=O)CC3)C2)cc1Cl (configuration not stated)	–	inactive: 26.6%
Cc1cc(C)cc(NC(=O)CSc2nc3ccccc3nc2N2CCCCC2)c1	active: 9.28 µM	–
COc1ccc(OC)c(N=C2SCCCN2C(=O)c2ccc(N3C(=O)CCC3=O)cc2)c1	inconclusive: 18.5 µM [inhibitor, single point]	–
CC(Oc1ccc2c3c(c(=O)oc2c1)CCC3)C(=O)NCc1cccnc1 (configuration not stated)	inconclusive: 20.8 µM [inhibitor, single point]	–
O=C(NCc1ccccc1)c1csc(-c2cccnc2)n1	–	inactive: 30.5%
O=C(Cn1c(-c2ccccn2)nc2ccccc21)N/N=C/c1ccccn1	inconclusive: 2.62 µM [inhibitor, partial curve, poor fit]	–

Source: PubChem BioAssay AID504834 (National Center for Advancing Translational Sciences (NCATS), 2011)
